Results from PMC3591284.

Target: T1, GST-PRMT4 (UniProt Q86X55)
T1 sequence: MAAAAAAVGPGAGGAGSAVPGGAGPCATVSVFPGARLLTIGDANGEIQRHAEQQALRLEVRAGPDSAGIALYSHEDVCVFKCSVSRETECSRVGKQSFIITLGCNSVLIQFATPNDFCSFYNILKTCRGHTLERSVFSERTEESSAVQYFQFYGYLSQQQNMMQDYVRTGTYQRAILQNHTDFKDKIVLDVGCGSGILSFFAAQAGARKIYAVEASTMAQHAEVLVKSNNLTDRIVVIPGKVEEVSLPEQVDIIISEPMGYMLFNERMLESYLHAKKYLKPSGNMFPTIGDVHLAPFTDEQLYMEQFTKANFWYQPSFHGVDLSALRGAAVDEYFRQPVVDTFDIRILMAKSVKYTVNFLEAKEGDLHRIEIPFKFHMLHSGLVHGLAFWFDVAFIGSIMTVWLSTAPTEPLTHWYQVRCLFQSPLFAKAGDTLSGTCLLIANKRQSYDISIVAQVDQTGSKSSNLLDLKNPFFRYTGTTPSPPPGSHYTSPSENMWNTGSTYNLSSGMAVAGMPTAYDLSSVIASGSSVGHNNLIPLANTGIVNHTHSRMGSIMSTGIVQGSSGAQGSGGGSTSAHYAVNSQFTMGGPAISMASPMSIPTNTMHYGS
Assay: pull-down; glutathione beads-bound recombinant GST, GST-PRMT1, -4 and -6 with recombinant His-tagged c-Myb; anti-c-Myb Western blot; both purified

## recombinant His-tagged c-Myb
  binding: binds

These are yes or no findings as the source states them, for the method shown. Binding can be weak; no strength is given. Tags and fused reporters may be left off the sequences shown.
